Protein sequences, listed by entry. Tags and fused reporters are not part of them. Lines headed by an entry give the natural chain unless they say otherwise; changes in a name come on top.
UniProt Q8VZQ2: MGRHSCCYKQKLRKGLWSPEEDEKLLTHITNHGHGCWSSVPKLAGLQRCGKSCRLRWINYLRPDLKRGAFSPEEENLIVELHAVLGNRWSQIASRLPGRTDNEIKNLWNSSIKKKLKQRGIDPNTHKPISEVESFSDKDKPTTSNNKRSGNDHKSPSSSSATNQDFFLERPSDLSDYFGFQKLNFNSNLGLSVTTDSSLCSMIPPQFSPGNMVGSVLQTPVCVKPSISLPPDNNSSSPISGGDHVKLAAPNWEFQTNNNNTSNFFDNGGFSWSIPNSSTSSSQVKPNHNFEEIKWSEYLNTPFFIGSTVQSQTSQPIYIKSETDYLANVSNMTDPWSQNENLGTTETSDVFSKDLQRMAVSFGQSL
UniProt Q9ATD6: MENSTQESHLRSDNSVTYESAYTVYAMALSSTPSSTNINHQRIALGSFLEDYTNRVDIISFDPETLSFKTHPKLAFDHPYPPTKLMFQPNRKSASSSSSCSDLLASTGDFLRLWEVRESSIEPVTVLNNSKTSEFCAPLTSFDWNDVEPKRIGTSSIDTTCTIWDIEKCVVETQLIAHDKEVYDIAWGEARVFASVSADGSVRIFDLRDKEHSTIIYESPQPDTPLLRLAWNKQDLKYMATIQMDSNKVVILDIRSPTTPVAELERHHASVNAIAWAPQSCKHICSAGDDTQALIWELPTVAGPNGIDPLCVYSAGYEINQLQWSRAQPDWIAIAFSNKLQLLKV

According to publication PMC6449874:

What was measured:
Assay in all cases: pull-down; LUMIER pulldown: one protein fused to ProtA, the other to Rluc, each single-expressed in HEK293TM cells; lysis buffer 20 mM Tris pH 7.5, 250 mM NaCl, 1.1% Triton X-100, 10 mM EDTA, 10 mM DTT; sheep anti-rabbit IgG-coated Dynabeads, 1 h on ice; Rluc on the beads as percent of input; +: >= 2.5%, w: 1.5%-2.5%, -: < 1.5%; two grades in each cell
[1] = biological target: T1, AtPAP1 (Arabidopsis thaliana) (UniProt Q9FE25)
T1 sequence: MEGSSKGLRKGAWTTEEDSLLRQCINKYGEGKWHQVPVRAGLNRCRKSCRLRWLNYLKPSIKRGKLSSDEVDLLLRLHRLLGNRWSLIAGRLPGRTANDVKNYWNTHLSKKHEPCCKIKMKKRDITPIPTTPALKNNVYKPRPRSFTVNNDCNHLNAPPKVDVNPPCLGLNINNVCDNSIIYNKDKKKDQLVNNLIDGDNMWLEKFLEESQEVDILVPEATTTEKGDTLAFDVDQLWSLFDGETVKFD

[2] = biological target: T2, AtGL1 (Arabidopsis thaliana) (UniProt P27900)
T2 sequence: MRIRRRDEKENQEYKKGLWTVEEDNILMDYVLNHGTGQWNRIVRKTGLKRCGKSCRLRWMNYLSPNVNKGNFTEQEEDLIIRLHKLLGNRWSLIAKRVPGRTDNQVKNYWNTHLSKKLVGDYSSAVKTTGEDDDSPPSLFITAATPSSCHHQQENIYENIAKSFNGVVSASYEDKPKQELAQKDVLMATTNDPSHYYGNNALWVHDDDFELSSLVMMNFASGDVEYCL

[3] = biological target: T3, AtWER (Arabidopsis thaliana) (UniProt Q9SEI0)
T3 sequence: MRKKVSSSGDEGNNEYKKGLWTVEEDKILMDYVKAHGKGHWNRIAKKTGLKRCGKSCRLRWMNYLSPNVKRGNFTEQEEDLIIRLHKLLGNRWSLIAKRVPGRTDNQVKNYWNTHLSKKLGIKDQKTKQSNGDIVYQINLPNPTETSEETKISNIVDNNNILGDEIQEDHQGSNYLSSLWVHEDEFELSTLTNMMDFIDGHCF

[4] = biological target: T4, AtPAP2 (Arabidopsis thaliana) (UniProt Q9ZTC3)
T4 sequence: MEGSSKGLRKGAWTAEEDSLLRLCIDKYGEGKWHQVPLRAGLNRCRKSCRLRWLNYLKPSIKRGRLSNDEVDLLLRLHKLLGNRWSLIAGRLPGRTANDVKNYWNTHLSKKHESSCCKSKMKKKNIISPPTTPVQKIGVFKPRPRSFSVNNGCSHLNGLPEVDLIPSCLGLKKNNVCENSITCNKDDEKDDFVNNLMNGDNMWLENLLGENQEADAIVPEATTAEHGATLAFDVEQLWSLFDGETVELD

[5] = biological target: T5, AtTT8 (Arabidopsis thaliana) (UniProt Q9FT81)
T5 sequence: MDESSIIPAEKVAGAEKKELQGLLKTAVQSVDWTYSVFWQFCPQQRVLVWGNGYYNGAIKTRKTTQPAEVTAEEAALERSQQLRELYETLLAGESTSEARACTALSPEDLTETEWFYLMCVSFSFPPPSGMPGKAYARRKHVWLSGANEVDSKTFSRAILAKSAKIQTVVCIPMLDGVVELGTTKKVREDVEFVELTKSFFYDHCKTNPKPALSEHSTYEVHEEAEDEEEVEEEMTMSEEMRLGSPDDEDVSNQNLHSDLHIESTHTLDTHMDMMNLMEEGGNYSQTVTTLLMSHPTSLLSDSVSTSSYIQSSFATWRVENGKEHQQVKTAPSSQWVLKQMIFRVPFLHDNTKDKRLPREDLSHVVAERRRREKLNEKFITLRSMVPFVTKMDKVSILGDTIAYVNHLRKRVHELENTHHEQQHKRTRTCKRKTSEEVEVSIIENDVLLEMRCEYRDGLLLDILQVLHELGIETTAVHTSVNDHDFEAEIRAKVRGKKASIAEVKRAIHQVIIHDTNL

[6] = biological target: AtMYB61 (Arabidopsis thaliana) (UniProt Q8VZQ2)

Substance: ZmMP1 (Zea mays)
- binding [1]: no binding
- binding [2]: no binding
- binding [3]: no binding
- binding [4]: no binding
- binding [5]: no binding

Substance: GhTTG2 (Gossypium hirsutum)
- binding [1]: no binding
- binding [2]: no binding
- binding [3]: no binding
- binding [4]: no binding
- binding [5]: no binding

Substance: GhTTG4 (Gossypium hirsutum)
- binding [1]: no binding
- binding [2]: no binding
- binding [3]: no binding
- binding [4]: no binding
- binding [5]: no binding

Substance: AaTTG1 (Arabis alpina)
- binding [1]: no binding
- binding [2]: no binding
- binding [3]: no binding
- binding [4]: no binding
- binding [5]: binds

Substance: GhTTG1 (from UniProt Q9ATD6)
- binding [1]: no binding
- binding [6]: no binding
- binding [2]: no binding
- binding [3]: no binding
- binding [4]: no binding
- binding [5]: binds

Substance: ZmPAC1 (Zea mays)
- binding [1]: no binding
- binding [2]: no binding
- binding [3]: no binding
- binding [4]: no binding
- binding [5]: binds

Substance: GhTTG3 (Gossypium hirsutum)
- binding [1]: no binding
- binding [2]: no binding
- binding [3]: no binding
- binding [4]: no binding
- binding [5]: no binding

Results are given in words; binding and its absence hold for the method and conditions named. In cells and extracts the contact can be indirect. For part of these data: A result given as binding can be weak or reduced; the word gives no strength.
